PubChem BioAssay AID504784, Drosophila RNAi Screening Center | 2011
Screen: 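Genome-wide knock-down for genes giving too much or too little stored lipid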 (primary screen). Cells: Drosophila Kc167 embryonic cells. Reagents: long dsRNA against Drosophila genes, about 250 ng dsRNA per well. Duration: 4 days. Challenge: cells fed 400 µM oleic acid bound to BSA. Measured: 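Cells imaged and segmented; ratio of lipid droplet area to nuclear area, log-transformed, then normalised as a B-score over the screen; higher means more stored lipid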. Direction: droplet/nuclear area B-score: higher = more stored lipid (overstorage).
In all, the deposit lists about 17,000 reagents; below is an unselected part of those that have a named target and a result. 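Each column is one replicate's B-score; the combined score over replicates was not deposited, so single values may mislead.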

Rheb (Ras homolog enriched in brain) [DRSC12148] — droplet/nuclear area B-score, replicate 1: 1.78; droplet/nuclear area B-score, replicate 2: 3.66
CG34284 [DRSC14773] — droplet/nuclear area B-score, replicate 1: 1.1; droplet/nuclear area B-score, replicate 2: -0.236
CG15888 [DRSC15125] — droplet/nuclear area B-score, replicate 1: 2.17; droplet/nuclear area B-score, replicate 2: 2.72
CG9416 [DRSC07339] — droplet/nuclear area B-score, replicate 1: -1.58; droplet/nuclear area B-score, replicate 2: -0.0178
NO66 (Nucleolar protein 66) [DRSC18252] — droplet/nuclear area B-score, replicate 1: -0.943
Pxn (Peroxidasin) [DRSC08685] — droplet/nuclear area B-score, replicate 1: -1.77; droplet/nuclear area B-score, replicate 2: -0.667; droplet/nuclear area B-score, replicate 3: -0.624
RpL26 (Ribosomal protein L26) [DRSC10726] — droplet/nuclear area B-score, replicate 1: 2.71; droplet/nuclear area B-score, replicate 2: 3.04
Rfk (Riboflavin kinase) [DRSC15454] — droplet/nuclear area B-score, replicate 1: 2.17; droplet/nuclear area B-score, replicate 2: 0.659
EbpII (Ejaculatory bulb protein II) [DRSC04637] — droplet/nuclear area B-score, replicate 1: 0.484; droplet/nuclear area B-score, replicate 2: -0.183
EbpII (Ejaculatory bulb protein II) [DRSC22484] — droplet/nuclear area B-score, replicate 1: -0.00527; droplet/nuclear area B-score, replicate 2: -1.78
Fum2 (Fumarase 2) [DRSC18345] — droplet/nuclear area B-score, replicate 1: -0.917; droplet/nuclear area B-score, replicate 2: -0.939
Nup35 (Nucleoporin 35kDa) [DRSC19999] — droplet/nuclear area B-score, replicate 1: 1.06; droplet/nuclear area B-score, replicate 2: 0.279
CG6933 [DRSC10751] — droplet/nuclear area B-score, replicate 1: -2.57; droplet/nuclear area B-score, replicate 2: -1.24; droplet/nuclear area B-score, replicate 3: -0.187
be (ben) [DRSC19607] — droplet/nuclear area B-score, replicate 1: 0.261; droplet/nuclear area B-score, replicate 2: -0.204; droplet/nuclear area B-score, replicate 3: 0.936
be (ben) [DRSC19944] — droplet/nuclear area B-score, replicate 1: -0.164; droplet/nuclear area B-score, replicate 2: -0.124
be (ben) [DRSC19945] — droplet/nuclear area B-score, replicate 1: -0.156; droplet/nuclear area B-score, replicate 2: 0.00558
Rack1 (Receptor of activated protein kinase C 1) [DRSC03405] — droplet/nuclear area B-score, replicate 1: 0.821; droplet/nuclear area B-score, replicate 2: 0.384
Stt3B [DRSC16781] — droplet/nuclear area B-score, replicate 1: -1.27; droplet/nuclear area B-score, replicate 2: 0.674
Aps (Aps pyrophosphatase) [DRSC10629] — droplet/nuclear area B-score, replicate 1: -1.57; droplet/nuclear area B-score, replicate 2: 1.15
KdelR (KDEL receptor) [DRSC03353] — droplet/nuclear area B-score, replicate 1: 0.551; droplet/nuclear area B-score, replicate 2: -1.01
CG11373 [DRSC12170] — droplet/nuclear area B-score, replicate 1: 0.177; droplet/nuclear area B-score, replicate 2: 0.33
Ir67a (Ionotropic receptor 67a) [DRSC09897] — droplet/nuclear area B-score, replicate 1: -1.54; droplet/nuclear area B-score, replicate 2: -1.74
CG32428 [DRSC11697] — droplet/nuclear area B-score, replicate 1: -0.378; droplet/nuclear area B-score, replicate 2: 1.61; droplet/nuclear area B-score, replicate 3: 0.498
CG32428 [DRSC11768] — droplet/nuclear area B-score, replicate 1: -0.11; droplet/nuclear area B-score, replicate 2: -0.16
HDAC3 (Histone deacetylase 3) [DRSC12352] — droplet/nuclear area B-score, replicate 1: 1.95; droplet/nuclear area B-score, replicate 2: 4.98
Mal-A4 (Maltase A4) [DRSC07236] — droplet/nuclear area B-score, replicate 1: -0.117; droplet/nuclear area B-score, replicate 2: -0.773
Obp56h (Odorant-binding protein 56h) [DRSC06433] — droplet/nuclear area B-score, replicate 1: -0.0736; droplet/nuclear area B-score, replicate 2: 1.93
CG3164 [DRSC00572] — droplet/nuclear area B-score, replicate 1: 2.16; droplet/nuclear area B-score, replicate 2: 1.13
JMJD6 (Jumonji domain containing 6) [DRSC15787] — droplet/nuclear area B-score, replicate 1: -1.03; droplet/nuclear area B-score, replicate 2: 0.159
CG14797 [DRSC17955] — droplet/nuclear area B-score, replicate 1: -0.392; droplet/nuclear area B-score, replicate 2: 0.735
DhpD (Dihydropterin deaminase) [DRSC12288] — droplet/nuclear area B-score, replicate 1: 0.807; droplet/nuclear area B-score, replicate 2: 2.5; droplet/nuclear area B-score, replicate 3: 1.32
CG34337 [DRSC18435] — droplet/nuclear area B-score, replicate 1: 1.41; droplet/nuclear area B-score, replicate 2: -1.19
Syt14 (Synaptotagmin 14) [DRSC12331] — droplet/nuclear area B-score, replicate 1: 0.0867; droplet/nuclear area B-score, replicate 2: 1.65
ChAT (Choline acetyltransferase) [DRSC16609] — droplet/nuclear area B-score, replicate 1: -0.378; droplet/nuclear area B-score, replicate 2: -0.667
ChAT (Choline acetyltransferase) [DRSC22755] — droplet/nuclear area B-score, replicate 1: -0.158; droplet/nuclear area B-score, replicate 2: 0.346
CG1965 [DRSC12577] — droplet/nuclear area B-score, replicate 2: -0.295; droplet/nuclear area B-score, replicate 3: 0.32
CG1965 [DRSC21828] — droplet/nuclear area B-score, replicate 1: -0.0204; droplet/nuclear area B-score, replicate 2: -3.49
CG12848 [DRSC04128] — droplet/nuclear area B-score, replicate 1: 0.0119; droplet/nuclear area B-score, replicate 2: -0.897
CG11927 [DRSC00337] — droplet/nuclear area B-score, replicate 1: 0.58; droplet/nuclear area B-score, replicate 2: 0.595
ND-42 (NADH dehydrogenase (ubiquinone) 42 kDa subunit) [DRSC16754] — droplet/nuclear area B-score, replicate 1: 0.129; droplet/nuclear area B-score, replicate 2: -2.17
CG9162 (retired record) [DRSC03151] — droplet/nuclear area B-score, replicate 1: 0.1; droplet/nuclear area B-score, replicate 2: -2.14
CG32409 [DRSC08780] — droplet/nuclear area B-score, replicate 1: -0.271; droplet/nuclear area B-score, replicate 2: -1.56
Wnk (Wnk kinase) [DRSC11813] — droplet/nuclear area B-score, replicate 1: 5.26; droplet/nuclear area B-score, replicate 2: 3.66
CG30109 [DRSC05675] — droplet/nuclear area B-score, replicate 1: 1.64; droplet/nuclear area B-score, replicate 2: -0.622
CG14787 [DRSC18606] — droplet/nuclear area B-score, replicate 1: -1.27; droplet/nuclear area B-score, replicate 2: -0.284
CG8195 [DRSC07103] — droplet/nuclear area B-score, replicate 1: 0.31; droplet/nuclear area B-score, replicate 2: -0.848
az2 [DRSC07580] — droplet/nuclear area B-score, replicate 1: 2.45; droplet/nuclear area B-score, replicate 2: -0.236
FMRFaR (FMRFamide Receptor) [DRSC08555] — droplet/nuclear area B-score, replicate 1: 0.379; droplet/nuclear area B-score, replicate 2: 1.73
CG9630 [DRSC16527] — droplet/nuclear area B-score, replicate 1: 1.79; droplet/nuclear area B-score, replicate 2: 0.0132
CG13114 [DRSC02212] — droplet/nuclear area B-score, replicate 1: -0.0755; droplet/nuclear area B-score, replicate 2: -0.908
CG13526 [DRSC04168] — droplet/nuclear area B-score, replicate 1: 0.602; droplet/nuclear area B-score, replicate 2: -0.161
